# “And” between values parts separate entries of the source, which are not always exact repeats. Equal entries are not always repeated. This is one part of the list. Entries with a potency or affinity are not part of this list. Where no call is shown, the source marks the result inconclusive. Residues, ends and D or L forms follow the SMILES beside them.
# Test: AR112GFP polyglutamine androgen receptor turnover promoters – cell-based, GFP fluorescence (AID 1607)
# Conditions: cells expressing AR112-GFP, stronger effect = lower value
row,Structure (SMILES),normalized GFP signal
1,CC(=O)Oc1ccc2c(c1)CCC1C2CCC2(C)C(=O)CCC12 (centres undefined),1.05
2,CN(C)CCOC(c1ccccc1)c1ccccc1 (tested in a mixture with another compound),0.914
3,CN[C@@H]1[C@H](O)[C@H](NC)[C@H]2O[C@@]3(O)C(=O)C[C@@H](C)O[C@H]3O[C@@H]2[C@H]1O,1.12
4,CC(=O)N1CCN(c2ccc(OCC3CO[C@](Cn4ccnc4)(c4ccc(Cl)cc4Cl)O3)cc2)CC1 (some centres undefined),0.89
5,N=C(N)N,0.973
6,O=C(O)c1c2ccccc2cc2ccccc12,1.15
7,Cc1c(OCC(F)(F)F)ccnc1CS(=O)c1nc2ccccc2[nH]1 (centres undefined),1.03
8,CCOC(=O)C(C)(C)Oc1ccc(Cl)cc1,0.987 and 0.994
9,CC(=O)Nc1ccc(O)cc1,1.12
10,CCC(=O)OC1CCC2C3CCc4cc(O)ccc4C3CCC12C (centres undefined),0.993
11,CC1CCc2cc(F)cc3c(=O)c(C(=O)O)cn1c23 (centres undefined),1
12,Nc1c2c(nc3ccccc13)CCCC2O (centres undefined),1.08
13,CC(C[N+](C)(C)C)OC(N)=O (centres undefined),0.974
14,O=c1c(-c2ccc(O)cc2)coc2cc(O)ccc12,0.95
15,NC1(C(=O)O)CCCC1,0.945
16,O=c1[nH]c(=O)n(C2C[C@@H](O)[C@@H](CO)O2)cc1F (some centres undefined),0.737
17,CC(=O)O[C@]1(C(C)=O)CCC2C3C=C(Cl)C4=CC(=O)[C@@H]5C[C@@H]5[C@]4(C)C3CC[C@@]21C (some centres undefined),0.954
18,CCCNC(=O)NS(=O)(=O)c1ccc(Cl)cc1,0.96
19,NCCCCC(N)C(=O)NCC(=O)NC(Cc1cnc[nH]1)C(=O)NC(CCCCN)C(=O)O (centres undefined) (H-KGHK-OH; configuration not given here),1.03
20,C[C@@H]1CC2C3C[C@H](F)C4=CC(=O)C=CC4(C)C3(F)[C@@H](O)CC2(C)C1C(=O)COC(=O)C(C)(C)C (some centres undefined),1.37

# Quoted at random: 2 records from the list
row,Structure (SMILES),normalized GFP signal
12,Nc1c2c(nc3ccccc13)CCCC2O (centres undefined),1.08
3,CN[C@@H]1[C@H](O)[C@H](NC)[C@H]2O[C@@]3(O)C(=O)C[C@@H](C)O[C@H]3O[C@@H]2[C@H]1O,1.12

# Carrying on:

row,Structure (SMILES),normalized GFP signal
1,CCCCCC(C)N (centres undefined),0.862
2,NS(=O)(=O)c1cc2c(cc1C(F)(F)F)NCNS2(=O)=O,1.04
3,COC(=O)Nc1nc2ccc(Sc3ccccc3)cc2[nH]1,0.801
4,CCCCCCOc1ccccc1C(N)=O,1.02
5,O=C1NC(=O)C(c2ccccc2)(c2ccccc2)N1,0.918
6,COc1cccc(OC)c1C(=O)N[C@@H]1C(=O)N2[C@@H]1SC(C)(C)[C@@H]2C(=O)O,1.04
7,CN(Cc1cnc2nc(N)nc(N)c2n1)c1ccc(C(=O)N[C@@H](CCC(=O)O)C(=O)O)cc1,0.763
8,O=C1CN(/N=C/c2ccc([N+](=O)[O-])o2)C(=O)N1,1
9,C=C[C@H]1CN2CC[C@H]1C[C@@H]2[C@H](O)c1ccnc2ccc(OC)cc12,0.966
10,CSCCC(NC=O)C(=O)NC(CC(C)C)C(=O)NC(Cc1ccccc1)C(=O)O (centres undefined),0.914
11,Cn1cc[nH]c1=S,0.95
12,CSc1ccc2c(c1)N(CCC1CCCCN1C)c1ccccc1S2 (centres undefined),0.713
13,CC(=O)[C@H]1CCC2C3CCC4=CC(=O)CC[C@]4(C)C3CC[C@@]21C (some centres undefined),1.08
14,C=C[C@@]1(C)CC(=O)[C@@]2(O)[C@](C)(O1)[C@@H](OC(C)=O)[C@@H](O)C1C(C)(C)CC[C@H](O)[C@@]12C (some centres undefined),1.46
15,Cc1cc(C)nc(NS(=O)(=O)c2ccc(N)cc2)n1,1.07
16,NNc1nncc2ccccc12,1.07
17,CN(C)CCCN1c2ccccc2Sc2ccc(Cl)cc21,0.681
18,O=C(O)C1=CCNCC1,1.02
19,COc1cc(C(=O)NCc2ccc(OCCN(C)C)cc2)cc(OC)c1OC,1.02
